The supplement of paper PMC12819154, “High-throughput peptide-centric local stability assay extends protein–ligand identification to membrane proteins, tissues and bacteria” (Nature Structural & Molecular Biology, 2025)
Some of the results follow. Most entries show no effect beyond the scatter of the controls.

Amino acid sequences for entries named in this document (tags omitted). A change or cut given only in a name is not applied to a line headed by its entry.
UniProt Q9Z148: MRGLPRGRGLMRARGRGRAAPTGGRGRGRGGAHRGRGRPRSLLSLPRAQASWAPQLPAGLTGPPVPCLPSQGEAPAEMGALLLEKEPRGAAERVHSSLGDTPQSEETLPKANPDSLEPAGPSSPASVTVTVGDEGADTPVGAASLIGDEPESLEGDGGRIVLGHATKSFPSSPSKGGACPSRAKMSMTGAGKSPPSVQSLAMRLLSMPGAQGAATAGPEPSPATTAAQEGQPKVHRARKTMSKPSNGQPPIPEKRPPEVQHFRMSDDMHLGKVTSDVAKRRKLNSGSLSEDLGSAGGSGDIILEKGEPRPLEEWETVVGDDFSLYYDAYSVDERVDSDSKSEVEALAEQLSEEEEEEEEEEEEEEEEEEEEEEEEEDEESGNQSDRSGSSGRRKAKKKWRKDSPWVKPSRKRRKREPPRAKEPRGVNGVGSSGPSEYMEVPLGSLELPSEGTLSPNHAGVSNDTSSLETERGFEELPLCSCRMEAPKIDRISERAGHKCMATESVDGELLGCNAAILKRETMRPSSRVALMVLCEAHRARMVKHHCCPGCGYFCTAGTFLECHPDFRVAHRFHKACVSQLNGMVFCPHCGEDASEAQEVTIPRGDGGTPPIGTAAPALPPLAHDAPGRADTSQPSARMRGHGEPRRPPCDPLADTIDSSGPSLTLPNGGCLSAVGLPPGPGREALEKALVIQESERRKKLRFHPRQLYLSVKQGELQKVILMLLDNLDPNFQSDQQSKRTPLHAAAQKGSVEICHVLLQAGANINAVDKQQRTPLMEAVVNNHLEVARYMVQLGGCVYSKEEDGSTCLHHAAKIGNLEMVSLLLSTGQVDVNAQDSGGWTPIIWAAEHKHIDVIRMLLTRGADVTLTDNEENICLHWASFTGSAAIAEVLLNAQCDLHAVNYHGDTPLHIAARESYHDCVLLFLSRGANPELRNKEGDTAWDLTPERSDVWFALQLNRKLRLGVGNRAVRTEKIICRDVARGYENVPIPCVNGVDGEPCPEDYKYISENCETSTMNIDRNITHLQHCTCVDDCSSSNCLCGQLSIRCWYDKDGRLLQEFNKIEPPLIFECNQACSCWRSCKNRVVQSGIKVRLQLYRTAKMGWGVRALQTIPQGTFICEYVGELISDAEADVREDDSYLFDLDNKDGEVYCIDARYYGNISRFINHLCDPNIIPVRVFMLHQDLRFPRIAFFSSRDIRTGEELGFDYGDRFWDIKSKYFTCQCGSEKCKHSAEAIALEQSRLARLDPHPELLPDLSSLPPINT
UniProt Q9Z223: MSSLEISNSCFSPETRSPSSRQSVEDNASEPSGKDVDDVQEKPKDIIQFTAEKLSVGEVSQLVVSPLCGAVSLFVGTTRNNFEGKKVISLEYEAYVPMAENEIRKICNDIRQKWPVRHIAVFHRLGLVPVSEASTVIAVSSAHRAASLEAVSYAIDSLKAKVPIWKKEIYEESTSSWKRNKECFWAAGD
UniProt Q9Z1S8, whole entry: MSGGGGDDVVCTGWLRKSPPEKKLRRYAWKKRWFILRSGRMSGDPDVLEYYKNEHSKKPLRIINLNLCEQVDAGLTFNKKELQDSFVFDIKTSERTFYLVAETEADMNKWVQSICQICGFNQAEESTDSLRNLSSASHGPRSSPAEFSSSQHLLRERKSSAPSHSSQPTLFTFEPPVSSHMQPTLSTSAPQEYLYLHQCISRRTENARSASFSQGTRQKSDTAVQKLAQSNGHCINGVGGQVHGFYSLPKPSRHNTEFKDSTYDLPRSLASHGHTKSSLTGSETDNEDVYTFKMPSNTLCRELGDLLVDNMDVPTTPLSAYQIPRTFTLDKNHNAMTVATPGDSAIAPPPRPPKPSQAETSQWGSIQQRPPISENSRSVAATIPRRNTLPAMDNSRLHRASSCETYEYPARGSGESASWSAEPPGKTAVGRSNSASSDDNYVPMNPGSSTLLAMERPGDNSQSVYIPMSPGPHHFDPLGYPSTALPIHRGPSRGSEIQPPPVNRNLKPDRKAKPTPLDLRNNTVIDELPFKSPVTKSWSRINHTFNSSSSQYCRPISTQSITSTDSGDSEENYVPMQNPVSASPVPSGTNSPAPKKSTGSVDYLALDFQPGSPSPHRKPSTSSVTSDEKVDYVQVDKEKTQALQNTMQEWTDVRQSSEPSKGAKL
UniProt Q9Z2Q6: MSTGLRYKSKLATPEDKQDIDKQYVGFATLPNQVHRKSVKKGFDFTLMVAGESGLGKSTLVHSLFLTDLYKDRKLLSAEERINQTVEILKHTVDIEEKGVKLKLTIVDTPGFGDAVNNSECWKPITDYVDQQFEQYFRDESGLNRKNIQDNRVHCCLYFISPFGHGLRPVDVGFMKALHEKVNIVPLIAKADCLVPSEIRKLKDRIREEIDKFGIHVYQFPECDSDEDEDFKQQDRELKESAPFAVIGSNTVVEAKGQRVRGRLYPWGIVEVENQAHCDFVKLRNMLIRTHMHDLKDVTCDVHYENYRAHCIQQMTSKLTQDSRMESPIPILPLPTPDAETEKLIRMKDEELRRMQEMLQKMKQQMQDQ
UniProt Q9Z2N8, whole entry: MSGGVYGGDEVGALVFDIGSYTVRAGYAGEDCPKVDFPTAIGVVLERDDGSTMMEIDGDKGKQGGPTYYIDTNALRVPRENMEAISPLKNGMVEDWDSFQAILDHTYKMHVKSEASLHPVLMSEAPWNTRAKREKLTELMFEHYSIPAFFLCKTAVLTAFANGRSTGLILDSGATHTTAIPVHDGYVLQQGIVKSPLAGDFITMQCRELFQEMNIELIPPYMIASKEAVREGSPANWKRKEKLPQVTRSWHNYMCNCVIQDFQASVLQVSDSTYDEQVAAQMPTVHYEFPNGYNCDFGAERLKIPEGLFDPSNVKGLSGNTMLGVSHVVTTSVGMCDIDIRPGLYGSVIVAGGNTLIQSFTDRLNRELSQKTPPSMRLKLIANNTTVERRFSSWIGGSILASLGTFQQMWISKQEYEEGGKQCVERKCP
UniProt Q9Z2A7: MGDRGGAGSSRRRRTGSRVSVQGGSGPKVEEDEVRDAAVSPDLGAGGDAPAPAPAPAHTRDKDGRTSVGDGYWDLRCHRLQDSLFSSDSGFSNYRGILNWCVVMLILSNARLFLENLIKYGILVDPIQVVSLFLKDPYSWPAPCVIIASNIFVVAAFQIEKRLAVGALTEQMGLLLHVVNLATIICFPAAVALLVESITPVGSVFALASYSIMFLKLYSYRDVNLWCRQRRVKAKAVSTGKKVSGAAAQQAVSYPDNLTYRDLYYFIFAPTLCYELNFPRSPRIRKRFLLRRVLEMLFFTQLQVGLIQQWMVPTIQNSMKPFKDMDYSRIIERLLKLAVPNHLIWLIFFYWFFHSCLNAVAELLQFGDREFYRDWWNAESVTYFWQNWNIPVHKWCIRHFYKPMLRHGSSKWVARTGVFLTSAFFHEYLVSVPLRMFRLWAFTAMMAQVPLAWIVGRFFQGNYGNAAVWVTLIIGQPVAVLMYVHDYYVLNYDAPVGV
UniProt Q9Z1B3: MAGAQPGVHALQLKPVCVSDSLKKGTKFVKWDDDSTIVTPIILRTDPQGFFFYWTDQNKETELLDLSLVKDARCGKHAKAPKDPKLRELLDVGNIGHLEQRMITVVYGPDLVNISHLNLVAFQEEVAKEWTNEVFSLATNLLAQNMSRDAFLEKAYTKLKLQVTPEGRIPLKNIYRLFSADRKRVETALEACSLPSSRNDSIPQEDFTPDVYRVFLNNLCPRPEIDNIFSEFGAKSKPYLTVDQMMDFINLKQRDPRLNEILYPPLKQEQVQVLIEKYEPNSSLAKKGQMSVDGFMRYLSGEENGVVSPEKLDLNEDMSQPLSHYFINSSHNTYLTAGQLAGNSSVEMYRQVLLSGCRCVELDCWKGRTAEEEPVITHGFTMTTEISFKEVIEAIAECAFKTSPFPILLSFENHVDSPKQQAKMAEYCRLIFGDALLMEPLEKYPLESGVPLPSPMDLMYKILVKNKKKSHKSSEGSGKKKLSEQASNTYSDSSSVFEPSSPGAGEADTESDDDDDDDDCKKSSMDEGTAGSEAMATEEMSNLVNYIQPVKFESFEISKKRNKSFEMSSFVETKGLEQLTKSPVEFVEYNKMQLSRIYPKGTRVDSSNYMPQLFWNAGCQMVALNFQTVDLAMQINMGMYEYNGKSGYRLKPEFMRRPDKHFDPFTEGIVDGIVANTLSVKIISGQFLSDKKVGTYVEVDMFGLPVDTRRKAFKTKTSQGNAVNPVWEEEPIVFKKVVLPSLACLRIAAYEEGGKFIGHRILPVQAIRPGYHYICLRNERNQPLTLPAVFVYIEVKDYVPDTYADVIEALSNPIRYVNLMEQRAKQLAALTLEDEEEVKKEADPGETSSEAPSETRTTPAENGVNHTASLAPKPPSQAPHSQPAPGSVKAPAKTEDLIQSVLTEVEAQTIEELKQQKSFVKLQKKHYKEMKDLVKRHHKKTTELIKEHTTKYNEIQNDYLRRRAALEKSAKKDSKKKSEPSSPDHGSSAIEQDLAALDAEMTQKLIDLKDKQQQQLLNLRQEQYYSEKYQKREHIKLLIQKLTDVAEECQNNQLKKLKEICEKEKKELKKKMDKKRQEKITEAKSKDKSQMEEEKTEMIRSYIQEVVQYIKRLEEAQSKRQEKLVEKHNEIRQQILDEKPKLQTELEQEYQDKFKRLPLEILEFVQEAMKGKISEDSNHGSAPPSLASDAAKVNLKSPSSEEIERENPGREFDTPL
UniProt Q9Z2I9: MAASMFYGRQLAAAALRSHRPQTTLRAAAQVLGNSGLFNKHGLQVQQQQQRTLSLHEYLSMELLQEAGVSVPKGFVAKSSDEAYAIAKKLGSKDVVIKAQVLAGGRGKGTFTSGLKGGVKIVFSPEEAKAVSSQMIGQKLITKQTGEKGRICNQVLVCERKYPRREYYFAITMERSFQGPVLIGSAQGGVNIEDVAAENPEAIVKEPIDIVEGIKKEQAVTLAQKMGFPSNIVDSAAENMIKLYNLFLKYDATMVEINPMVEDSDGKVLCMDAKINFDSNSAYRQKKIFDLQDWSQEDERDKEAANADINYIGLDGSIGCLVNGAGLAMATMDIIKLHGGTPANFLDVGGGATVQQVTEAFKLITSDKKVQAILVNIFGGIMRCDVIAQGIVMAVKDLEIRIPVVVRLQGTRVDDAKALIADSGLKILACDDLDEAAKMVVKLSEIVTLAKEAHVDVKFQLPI
UniProt Q9Z0Y9, whole entry: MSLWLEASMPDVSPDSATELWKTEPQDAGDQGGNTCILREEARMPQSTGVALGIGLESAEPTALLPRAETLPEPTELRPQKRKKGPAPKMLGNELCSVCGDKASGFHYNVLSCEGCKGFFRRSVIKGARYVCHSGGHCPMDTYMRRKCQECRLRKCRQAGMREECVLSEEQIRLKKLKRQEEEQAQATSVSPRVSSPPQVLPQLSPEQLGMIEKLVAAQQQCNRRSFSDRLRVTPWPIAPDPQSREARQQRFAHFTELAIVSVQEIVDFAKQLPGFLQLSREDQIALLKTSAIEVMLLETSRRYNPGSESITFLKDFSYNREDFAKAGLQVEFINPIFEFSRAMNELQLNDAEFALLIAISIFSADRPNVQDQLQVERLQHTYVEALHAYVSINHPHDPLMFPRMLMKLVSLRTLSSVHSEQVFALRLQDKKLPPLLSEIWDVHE
UniProt Q9WVS7: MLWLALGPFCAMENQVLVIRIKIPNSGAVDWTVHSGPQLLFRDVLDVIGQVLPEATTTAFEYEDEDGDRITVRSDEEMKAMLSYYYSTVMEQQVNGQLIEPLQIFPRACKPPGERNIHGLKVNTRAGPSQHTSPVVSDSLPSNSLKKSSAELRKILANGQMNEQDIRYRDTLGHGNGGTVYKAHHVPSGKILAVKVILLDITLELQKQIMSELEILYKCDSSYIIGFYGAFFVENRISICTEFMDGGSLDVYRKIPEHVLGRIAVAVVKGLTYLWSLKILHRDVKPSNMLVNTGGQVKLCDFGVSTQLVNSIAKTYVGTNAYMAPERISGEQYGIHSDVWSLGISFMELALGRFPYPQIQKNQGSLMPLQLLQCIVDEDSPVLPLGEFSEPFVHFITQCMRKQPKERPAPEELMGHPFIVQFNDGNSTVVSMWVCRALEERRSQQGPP
UniProt Q9Z2J0: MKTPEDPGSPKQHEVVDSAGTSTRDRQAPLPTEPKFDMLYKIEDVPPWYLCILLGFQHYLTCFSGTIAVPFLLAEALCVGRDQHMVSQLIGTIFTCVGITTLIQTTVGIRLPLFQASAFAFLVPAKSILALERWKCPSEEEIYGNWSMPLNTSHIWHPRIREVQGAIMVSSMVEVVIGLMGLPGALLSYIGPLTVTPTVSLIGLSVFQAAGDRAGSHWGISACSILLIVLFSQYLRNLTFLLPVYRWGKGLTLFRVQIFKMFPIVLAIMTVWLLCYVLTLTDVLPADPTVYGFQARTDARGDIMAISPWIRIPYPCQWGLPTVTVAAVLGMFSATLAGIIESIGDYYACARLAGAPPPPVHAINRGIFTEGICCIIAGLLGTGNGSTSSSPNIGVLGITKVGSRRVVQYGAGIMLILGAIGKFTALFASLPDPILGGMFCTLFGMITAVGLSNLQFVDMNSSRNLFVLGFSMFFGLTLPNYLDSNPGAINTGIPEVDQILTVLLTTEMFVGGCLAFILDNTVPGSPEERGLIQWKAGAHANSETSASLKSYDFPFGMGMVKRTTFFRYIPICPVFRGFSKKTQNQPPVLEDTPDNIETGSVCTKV

Compound: CN[C@@H]1C[C@H]2O[C@@](C)([C@@H]1OC)n1c3ccccc3c3c4c(c5c6ccccc6n2c5c31)C(=O)NC4 [staurosporine]
Experiment: log2 fold change of tryptic peptide abundance, ligand vs vehicle (limited proteolysis) (log2 ratio); higher = more trypsin-susceptible (destabilized)
Settings: ligand concentration: 20 uM; sample: mouse liver crude lysate; replicate design: treated separately

Row | Target | log2 fold change
1 | UniProt Q9Z0J0 (peptide sequence: EVNVSPCPTDPCQLHK, peptide start residue: 36) | 0.0249
2 | UniProt Q9Z148 (peptide sequence: VALMVLCEAHR, peptide start residue: 528) | 0.18
3 | UniProt Q9Z223 (peptide sequence: QSVEDNASEPSGK, peptide start residue: 22) | 0.194
4 | UniProt Q9Z321 (peptide sequence: VACNTCNVVAHCFENAHR, peptide start residue: 746) | -0.772
5 | UniProt Q9Z247 (peptide sequence: LAPGFNAEMIVK, peptide start residue: 528) | 0.0688
6 | UniProt Q9Z2X8 (peptide sequence: TFSYTLEDHTK, peptide start residue: 51) | -0.534
7 | UniProt Q9Z1S8 (peptide sequence: AKPTPLDLR, peptide start residue: 512) | -0.115
8 | UniProt Q9Z2Q6 (peptide sequence: MKDEELR, peptide start residue: 347) | 0.289
9 | UniProt Q9Z2N8 (peptide sequence: EGSPANWK, peptide start residue: 231) | -0.126
10 | UniProt Q9Z1R2 (peptide sequence: AAGARPLTSPESLSR, peptide start residue: 1095) | -0.221
11 | UniProt Q9Z2A7 (peptide sequence: TSVGDGYWDLR, peptide start residue: 66) | 0.266
12 | UniProt Q9WVG6 (peptide sequence: SSNLLDLKNPFFR, peptide start residue: 464) | -0.426
13 | UniProt Q9Z1G3 (peptide sequence: TCQQTWEK, peptide start residue: 14) | -0.785
14 | UniProt Q9WVL2 (peptide sequence: SFVVETQPCMPQTLHRPLILK, peptide start residue: 315) | 0.303
15 | UniProt Q9Z2G1 (peptide sequence: GAVYADSGNFER, peptide start residue: 382) | 0.174
16 | UniProt Q9Z0N2 (peptide sequence: AGGEAGVTLGQPHLSR, peptide start residue: 2) | -0.211
17 | UniProt Q9Z1B3 (peptide sequence: TTELIKEHTTK, peptide start residue: 941) | 0.392
18 | UniProt Q9Z2I8 (peptide sequence: QKDIFAMDDKSENEPIENEAAR, peptide start residue: 271) | -0.105
19 | UniProt Q9Z0M5 (peptide sequence: WGYPGEEHSVLTGDGYILSIHR, peptide start residue: 42) | -0.274
20 | UniProt Q9Z2I9 (peptide sequence: GRICNQVLVCERK, peptide start residue: 149) | -0.284
21 | UniProt Q9Z0Y9 (peptide sequence: LVAAQQQCNRR, peptide start residue: 215) | -0.252
22 | UniProt Q9Z0H8 (peptide sequence: AQHEQYVAEAEEK, peptide start residue: 402) | -0.391
23 | UniProt Q9WVS7 (peptide sequence: YRDTLGHGNGGTVYK, peptide start residue: 168) | -0.652
24 | UniProt Q9Z0P5 (peptide sequence: HQTLQGLAFPLQPEAQR, peptide start residue: 172) | -0.187
25 | UniProt Q9WVL3 (peptide sequence: NTASHTTATAR, peptide start residue: 957) | 0.434
26 | UniProt Q9Z0P4 (peptide sequence: KVLGLQDTIK, peptide start residue: 315) | 0.273
27 | UniProt Q9Z2J0 (peptide sequence: TPEDPGSPK, peptide start residue: 3) | -0.271
28 | UniProt Q9Z280 (peptide sequence: IVDETDMK, peptide start residue: 540) | -0.0622
29 | UniProt Q9WVD4 (peptide sequence: QCLVTHNGR, peptide start residue: 780) | 0.185
30 | UniProt Q9Z1K6 (peptide sequence: SCWEQHCSVLVK, peptide start residue: 162) | -0.467

2 entries from above, as a markdown table:

| Row | Target | log2 fold change |
| --- | --- | --- |
| 8 | UniProt Q9Z2Q6 (peptide sequence: MKDEELR, peptide start residue: 347) | 0.289 |
| 9 | UniProt Q9Z2N8 (peptide sequence: EGSPANWK, peptide start residue: 231) | -0.126 |
